In patent publication US12226503B2, “Prebiotic skin care compositions containing carboxylic acids” (priority 2019, dated 2025):
Some results were stated once for a whole list of compounds, not compound by compound. At least one structure is not confirmed: it was looked up by name or label, or the drawing left a doubt.

Tested on: good-odor associated bacteria relative to malodor associated bacteria
Assay: Phenotype microarray (Biolog) plate growth screening of acids, OD 620 nm
Format: cell-based
Conditions: FIG. 1; all good-odorous vs all malodorous bacteria combined; incubation at 37° C. for 24 h and 48 h

Compound | growth of good-odorous bacteria relative to growth of malodorous bacteria
O=C(O)c1cc(O)c(O)c(O)c1 [Gallic acid] | ≥ 0.5 times
C[C@H](O)C(=O)O [L-lactic acid] | ≥ 0.5 times
